The values below come from patent US20210348152A1 (TECHNION RESEARCH AND DEVELOPMENT FOUNDATION, published 2021).

By UniProt entry, the sequences of proteins in these tests, tags left out.
UniProt P19838: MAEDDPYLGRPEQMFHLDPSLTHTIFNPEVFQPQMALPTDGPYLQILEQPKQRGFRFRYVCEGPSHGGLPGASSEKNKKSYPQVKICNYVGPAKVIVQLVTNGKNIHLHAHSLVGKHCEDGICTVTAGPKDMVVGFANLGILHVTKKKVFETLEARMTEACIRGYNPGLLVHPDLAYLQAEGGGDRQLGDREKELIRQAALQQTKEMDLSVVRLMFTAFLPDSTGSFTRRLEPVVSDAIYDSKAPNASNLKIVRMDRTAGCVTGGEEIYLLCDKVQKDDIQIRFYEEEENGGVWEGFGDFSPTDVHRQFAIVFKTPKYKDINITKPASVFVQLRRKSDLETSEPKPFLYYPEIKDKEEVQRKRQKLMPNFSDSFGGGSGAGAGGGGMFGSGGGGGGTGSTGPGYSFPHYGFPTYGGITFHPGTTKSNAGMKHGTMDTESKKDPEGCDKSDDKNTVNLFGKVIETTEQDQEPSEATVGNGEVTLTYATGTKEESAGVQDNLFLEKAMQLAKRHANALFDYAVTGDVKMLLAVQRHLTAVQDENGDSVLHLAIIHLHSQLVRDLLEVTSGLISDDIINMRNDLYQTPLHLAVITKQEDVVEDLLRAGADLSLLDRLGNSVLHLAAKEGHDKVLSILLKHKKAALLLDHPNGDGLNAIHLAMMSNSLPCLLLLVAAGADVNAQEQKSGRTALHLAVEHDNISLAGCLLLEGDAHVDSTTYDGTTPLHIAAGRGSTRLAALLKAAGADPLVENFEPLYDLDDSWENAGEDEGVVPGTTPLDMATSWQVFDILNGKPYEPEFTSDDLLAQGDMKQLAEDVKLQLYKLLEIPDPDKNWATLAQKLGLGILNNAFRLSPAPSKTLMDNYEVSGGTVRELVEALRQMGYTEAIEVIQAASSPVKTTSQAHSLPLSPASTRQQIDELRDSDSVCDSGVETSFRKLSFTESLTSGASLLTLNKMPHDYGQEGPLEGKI

The target in assay [1] is In vitro translated and 35S-labeled p105 (UniProt P19838). Description: words of the legend; peptide competition in cell-free ubiquitination of 35S-p105 (FIG. 6).
The target is the same in assay [2]. The experiment in a line: words of the legend; peptide competition in cell-free ubiquitination of 35S-p105 (FIG. 5).

Results are given in words; binding and its absence hold for the method and conditions named. Some entries that bind do so weakly or less than the wild type.

WILVRLW [WILVRLW peptide (non-modified)]: the binding entry in assay [1] was “binds”.
Consider WILVRLW (N-terminal amidation and C-terminal acetylation (so in the source)) [Amid-WILVRLW-Ac], for which the binding entry in assay [2] is on record as “binds”.
